{
  "sequences": {"note": "Amino acid sequences for entries named in this document (tags omitted).", "UniProt P18054, whole entry, looked up": "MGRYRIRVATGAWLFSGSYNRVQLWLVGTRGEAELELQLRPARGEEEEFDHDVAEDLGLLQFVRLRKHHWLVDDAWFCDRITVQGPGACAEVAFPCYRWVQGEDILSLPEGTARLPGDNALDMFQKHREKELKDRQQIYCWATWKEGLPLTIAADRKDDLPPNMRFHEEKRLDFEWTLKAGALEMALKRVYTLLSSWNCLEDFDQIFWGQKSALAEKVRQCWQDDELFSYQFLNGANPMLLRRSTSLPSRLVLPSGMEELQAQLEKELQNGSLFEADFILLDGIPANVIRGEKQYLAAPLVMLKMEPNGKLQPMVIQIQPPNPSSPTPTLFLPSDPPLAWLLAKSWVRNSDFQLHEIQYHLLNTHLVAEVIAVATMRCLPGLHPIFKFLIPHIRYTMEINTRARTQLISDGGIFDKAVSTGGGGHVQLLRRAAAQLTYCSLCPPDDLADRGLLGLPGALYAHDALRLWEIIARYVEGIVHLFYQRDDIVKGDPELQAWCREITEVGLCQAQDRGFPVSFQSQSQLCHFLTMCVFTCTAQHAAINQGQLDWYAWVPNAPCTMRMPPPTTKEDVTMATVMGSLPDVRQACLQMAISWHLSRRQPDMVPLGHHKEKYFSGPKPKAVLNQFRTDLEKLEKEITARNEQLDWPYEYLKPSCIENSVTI"},
  "source": "PubChem BioAssay AID1671190",
  "about": "(National Center for Advancing Translational Sciences (NCATS), 2021)",
  "note": "Where “and” joins values, the source holds several entries; their conditions need not be identical. Identical values can stand only once. About 6,100 (1.1%) of roughly 580,000 compounds were called active. This list was built around the results that the source calls inconclusive (neither active nor inactive); the mix of calls is not that of the screen. Calls come from the whole dose curve; as a rule, active = well fitted inhibition curve with a large enough effect; inconclusive = small, poorly fitted or top-dose-only effect, or another doubt; inactive = no such curve, though single readings can be large or run the other way. Where the call is inconclusive, the potency comes from a doubtful curve fit. % is set by controls: 0 for no effect and ±100 for the full control effect; potency is the fitted concentration of half-maximal effect.",
  "data": [
    {"target": "Polyunsaturated fatty acid lipoxygenase ALOX12 (Homo sapiens) (UniProt P18054)", "assay": "Primary qHTS assay for inhibitors of human arachidonate 12S-lipoxygenase (ALOX12): Round 2", "details": "purified 12hLO, xylenol orange hydroperoxide absorbance; activity change, negative = inhibition: at 108 µM (top of the series) unless noted", "procedure,_shortened": "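Hydroperoxide product was detected by ferrous iron/xylenol orange as the 573 to 405 nm absorbance ratio. Arachidonic acid at 40 uM (final) was turned over for 30 min at room temperature by 150 nM human 12hLO, pH 7.0 Hepes buffer, after 15 min compound preincubation.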", "values": [
      {"smiles": "Cc1oc(C)c2c(=O)ccc3c(c12)OC(N)=C(C#N)C3c1ccccc1", "note": "(stereo not given)", "Potency": "inconclusive: 11.2 µM [inhibitor, partial curve, poor fit]"},
      {"smiles": "CCOC(=O)COc1ccc(/C=C(/C#N)c2nc3ccc(C)cc3[nH]2)cc1OCC", "Potency": "inconclusive: 44.7 µM [inhibitor, partial curve, poor fit]"},
      {"smiles": "Cn1c(C(=O)OCC(=O)NCc2ccco2)cc2sccc21", "Potency": "inconclusive: 17.8 µM [inhibitor, partial curve]"},
      {"smiles": "C#CCn1c(O)c(N=NC(=O)CNC(=O)/C=C/c2ccccc2)c2ccccc21", "Potency": "inconclusive: 126 µM [inhibitor, partial curve, poor fit]"},
      {"smiles": "COc1ccccc1C(=O)NCC(=O)N/N=C/c1cc(Br)ccc1OC(=O)/C=C\\c1ccco1", "Potency": "inactive"},
      {"smiles": "Cc1cc(C)cc(NC2=NC3(CCCCC3)N=C(N)N2)c1", "Potency": "inconclusive: 50.1 µM [inhibitor, single point]"},
      {"smiles": "Cc1occc1-c1nnc(SCC(=O)c2c[nH]c(C(=O)N3CCCC3)c2)n1-c1ccccc1", "Potency": "inactive"},
      {"smiles": "O=C(COc1ccc(Cl)cc1Cl)Nc1ccc2oc(-c3cccnc3)nc2c1", "Potency": "inconclusive: 141 µM [inhibitor, single point]"},
      {"smiles": "O=c1[nH]c(=O)c2nc(-c3ccc(Cl)cc3)cnc2[nH]1", "Potency": "inconclusive: 5.62 µM [inhibitor, partial curve, poor fit]"},
      {"smiles": "O=C(NCC(c1ccco1)N1CCOCC1)c1ccc([N+](=O)[O-])cc1", "note": "(stereo not given)", "Potency": "inactive"},
      {"smiles": "COc1ccc(Br)cc1Cn1nnc(C(=O)Nc2ccc3c(c2)OCCO3)c1N", "Potency": "inactive"},
      {"smiles": "O=C(Nc1nc(-c2cccc([N+](=O)[O-])c2)cs1)C(c1ccccc1)c1ccccc1", "Potency": "inactive"},
      {"smiles": "Cc1cnc(NC(=O)C2=C(O)c3ccccc3S(=O)(=O)N2C)s1", "Potency": "inconclusive: 385 nM [inhibitor, full curve] and inconclusive: 10 µM [inhibitor, full curve, poor fit] and inconclusive: 1.41 µM [inhibitor, full curve, poor fit]"},
      {"smiles": "COc1ccc(OC)c(NC(=O)NCc2nc(-c3cccc(Cl)c3)oc2C)c1", "Potency": "inconclusive: 141 µM [inhibitor, single point]"},
      {"smiles": "Cc1ccccc1CSc1nnc(-c2c[nH]c3ccccc23)o1", "Potency": "inconclusive: 126 µM [inhibitor, single point]"},
      {"smiles": "O=C1NC(=O)C(c2cn(-c3ccccc3)nc2-c2ccc(F)cc2)N1", "note": "(stereo not given)", "Potency": "inactive"},
      {"smiles": "O=c1c2cc(N3CCOCC3)ccc2[nH]c(=S)n1Cc1ccccc1Cl", "Potency": "inactive"},
      {"smiles": "CCN(CC(=O)NCc1ccc(F)cc1)C(=O)CN1CCN(c2ccc(OC)cc2)CC1", "Potency": "inactive"},
      {"smiles": "C=CCC1(C(=O)N(C)Cc2ccccc2)CCN(C(=O)OC(C)(C)C)CC1", "activity change, negative = inhibition": "inconclusive: -35.9% [inhibitor]"},
      {"smiles": "COc1ccccc1N1CCN(Cc2ccc(-c3ccccc3[N+](=O)[O-])o2)CC1", "Potency": "inactive"},
      {"smiles": "Cn1c(=NC(=O)CN2C(=O)C3CC=CCC3C2=O)sc2ccccc21", "note": "(stereo not given)", "Potency": "inconclusive: 28.2 µM [inhibitor, partial curve, poor fit]"},
      {"smiles": "Cc1cccc(C(=O)NC(=S)NNC(=O)c2ccc(Cl)cc2)c1", "Potency": "active: 28.2 µM"},
      {"smiles": "Cc1ccc(S(=O)(=O)N2CCCC(C(=O)NCCc3ccccc3)C2)cc1", "note": "(stereo not given)", "Potency": "inconclusive: 126 µM [inhibitor, partial curve, poor fit]"},
      {"smiles": "CCCc1ccc(Oc2c(-c3ccc(O)c(C)c3O)n[nH]c2C)cc1", "Potency": "inactive"},
      {"smiles": "CNC(=O)n1cc(C)c(-c2cccs2)n1", "Potency": "inconclusive: 126 µM [inhibitor, single point]"},
      {"smiles": "O=C(Nc1ncc([N+](=O)[O-])s1)c1ccco1", "Potency": "inconclusive: 79.4 µM [inhibitor, partial curve, poor fit]"},
      {"smiles": "O=S(=O)(Nc1ccc(-c2cn3c(n2)SCC3)cc1)c1cccs1", "Potency": "inactive"},
      {"smiles": "COCCn1c(C)cc(C(=O)COC(=O)Cc2n[nH]c(=O)c3ccccc23)c1C", "Potency": "inactive and inconclusive: 2.82 µM [inhibitor, full curve, poor fit]"},
      {"smiles": "COc1ccc2[nH]cc(/C=C(/C#N)S(=O)(=O)c3ccccc3)c2c1", "Potency": "inconclusive: 158 µM [inhibitor, partial curve, poor fit]"},
      {"smiles": "COCCNC(=O)C(c1ccc(C)cc1)N(CCOC)C(=O)CCC(=O)Nc1nccs1", "note": "(stereo not given)", "Potency": "inconclusive: 126 µM [inhibitor, single point]"},
      {"smiles": "COc1ccc(OCC(=O)Nc2cccc(-c3nc4ccccc4[nH]3)c2)cc1", "Potency": "inactive"},
      {"smiles": "CC(=O)N1CCc2cc(S(=O)(=O)NCCCC(=O)N3CCC(CCOc4ccccc4)C3)ccc21", "note": "(stereo not given)", "Potency": "inactive"},
      {"smiles": "COc1ccc(Cn2c(=O)[nH]c3cc(C(=O)Nc4ccc(N5CCN(C)CC5)cc4)ccc32)cc1", "Potency": "inactive"},
      {"smiles": "COc1cc(-c2noc(C)c2/C=C/c2ccc(C(=O)O)cc2)cc(OC)c1OC", "Potency": "inconclusive: 39.8 µM [inhibitor, partial curve, poor fit]"},
      {"smiles": "O=C(CSc1ccccc1C(=O)O)NC12CC3CC(CC(C3)C1)C2", "Potency": "inactive"},
      {"smiles": "COc1ccc(C#Cc2cnc3c(c2)C(=O)N([C@@H](C)CO)C[C@@H](C)[C@@H](CN(C)CC2CCOCC2)O3)cc1", "Potency": "inconclusive: 28.2 µM [inhibitor, single point]"},
      {"smiles": "Cc1ccc(NC(=O)Cc2c[nH]c3ccccc23)cc1C", "Potency": "inconclusive: 112 µM [inhibitor, partial curve, poor fit]"},
      {"smiles": "CCc1ccc(CNCCNC(=O)c2ccco2)cc1", "Potency": "inactive"},
      {"smiles": "Cc1[nH]n(C)c(=O)c1N=Nc1ccc(S(C)(=O)=O)cc1", "Potency": "active: 6.31 µM"},
      {"smiles": "O=C1CCCN1CCC12CC3CC(CC(C3)C1)C2", "Potency": "inactive"},
      {"smiles": "Cc1ccc(CCNC(=O)Cn2nc(C)c3c(C)n(-c4ccc(C)cc4)nc3c2=O)cc1", "Potency": "inconclusive: 89.1 µM [inhibitor, partial curve, poor fit]"},
      {"smiles": "COCCn1ncc(N2CCCC(CC(=O)NCc3ccccc3C)C2)cc1=O", "note": "(stereo not given)", "Potency": "inconclusive: 0.708 µM [inhibitor, full curve, poor fit]"},
      {"smiles": "COc1cc2c(cc1OC)/C(=C/C(=O)c1ccccc1)NCC2", "Potency": "inconclusive: 25.1 µM [inhibitor, single point]"},
      {"smiles": "COC(=O)c1cnc(NC(=O)Cc2cccc3ccccc23)s1", "Potency": "inactive"},
      {"smiles": "CCCCN(C/C=C/c1ccccc1OC)Cc1ccccc1", "Potency": "inconclusive: 2.51 µM [inhibitor, full curve, poor fit]"},
      {"smiles": "CCCS(=O)(=O)NC(=O)C1(C)CCN(C(=O)c2ccc(F)c(Cl)c2)C1", "note": "(stereo not given)", "Potency": "inconclusive: 50.1 µM [inhibitor, partial curve, poor fit]"},
      {"smiles": "CN(CCC1CCCCN1C)Cc1cccc(C#N)c1", "note": "(stereo not given)", "Potency": "inactive"},
      {"smiles": "CC(=O)Nc1ccc(NC(=O)C(C)n2nnc(-c3ccc(C(C)C)cc3)n2)cc1", "note": "(stereo not given)", "Potency": "inactive"},
      {"smiles": "C=CCNC(=S)Nc1cc(Cl)ccc1OC", "Potency": "inconclusive: 44.7 µM [inhibitor, full curve, poor fit]"},
      {"smiles": "OCCOCCn1c(-c2ccccc2)nc(=S)c2c1CCCC2", "Potency": "active: 39.8 µM"},
      {"smiles": "Cc1ccc2nc(/C(C#N)=C/c3ccc(-c4ccccc4C(=O)O)o3)[nH]c2c1", "Potency": "inconclusive: 50.1 µM [inhibitor, partial curve, poor fit]"},
      {"smiles": "COc1ccc(NC(=O)C2CCN(S(=O)(=O)c3ccc(N4CCCC4=O)cc3)CC2)c(OC)c1", "Potency": "inactive"},
      {"smiles": "Cc1nnc([C@@H]2CC(F)(F)CN2C(=O)c2ccc3c(c2)OCO3)o1", "Potency": "inactive"},
      {"smiles": "Cc1noc2ncnc(Nc3ccc(F)cc3)c12", "Potency": "inactive"},
      {"smiles": "COC(=O)c1ccc(COC(=O)c2ccccn2)cc1", "Potency": "inconclusive: 39.8 µM [inhibitor, partial curve]"},
      {"smiles": "COC(=O)c1cc(NC(=O)c2cnccn2)cc(C(=O)OC)c1", "Potency": "inconclusive: 100 µM [inhibitor, single point]"},
      {"smiles": "COC(=O)c1c(NC(=O)c2ccc(Br)o2)sc(C)c1C", "Potency": "inconclusive: 0.447 µM [inhibitor, single point]"},
      {"smiles": "COc1ccc(CN(C)C(=O)/C=C/c2ccc(S(=O)(=O)N3CCOCC3)cc2)cc1F", "Potency": "inactive"},
      {"smiles": "COc1cccc(NC(=O)Cc2c(C)c3ccc(OC)cc3oc2=O)c1", "Potency": "inconclusive: 10 µM [inhibitor, partial curve, poor fit]"},
      {"smiles": "COc1ccc(CN(C)Cc2cc(=O)oc3cc(C)c(C(C)C)cc23)cc1OC", "Potency": "inconclusive: 141 µM [inhibitor, single point]"},
      {"smiles": "Cc1ccc(C(=O)CC(C(=O)O)P(=O)(c2ccccc2)c2ccccc2)cc1", "note": "(stereo not given)", "Potency": "inactive"},
      {"smiles": "COc1cccc2cc(-c3nnc(Nc4ccccc4C)s3)c(=O)oc12", "Potency": "inactive"},
      {"smiles": "Oc1ccc(-c2n[nH]c(=S)n2Cc2ccccc2)cc1", "Potency": "inconclusive: 44.7 µM [inhibitor, single point]"},
      {"smiles": "Cc1cc(N2C(=O)C3CC=CC(C)C3C2=O)no1", "note": "(stereo not given)", "Potency": "inconclusive: 50.1 µM [inhibitor, partial curve]"},
      {"smiles": "COc1cc(OC)c(OC)cc1CN1CCN(Cc2ccc(SC)cc2)CC1", "Potency": "inactive"},
      {"smiles": "N#Cc1ccccc1Sc1ccccc1C(=O)Nc1ccc2c(c1)CCC2", "Potency": "active: 20 µM"},
      {"smiles": "Cc1ccc(SC2CCN(Cc3cc4n(n3)CCNC4)CC2)cc1", "Potency": "inactive"},
      {"smiles": "Cc1nn(-c2ccccc2)c(C)c1NC(=O)COC(=O)c1cc(Br)ccc1O", "Potency": "inconclusive: 89.1 µM [inhibitor, partial curve, poor fit]"},
      {"smiles": "COc1ccccc1NC(=O)N(C)C[C@@H]1OCc2cn(nn2)CCCC(=O)N([C@@H](C)CO)C[C@H]1C", "Potency": "inconclusive: 2 µM [inhibitor, full curve, poor fit]"},
      {"smiles": "Cc1oc2c(c1C(=O)c1ccc(Cl)cc1)C(=O)C(=O)c1ccccc1-2", "Potency": "inconclusive: 50.1 µM [inhibitor, partial curve, poor fit]"}
    ]}
  ]
}
